Measurements reported in PMC10454406.
These are yes or no findings as the source states them, for the method shown. In cells and extracts the contact can be indirect. These calls come from enrichment with a bait or labelling near it, and not all partners need be listed.

Chains of the proteins cited; added tags and fusions are not shown. Residues count along the entry.
UniProt P0DTC4: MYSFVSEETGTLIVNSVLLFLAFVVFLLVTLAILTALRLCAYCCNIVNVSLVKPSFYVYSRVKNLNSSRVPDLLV
UniProt P20701, residues 26-1170: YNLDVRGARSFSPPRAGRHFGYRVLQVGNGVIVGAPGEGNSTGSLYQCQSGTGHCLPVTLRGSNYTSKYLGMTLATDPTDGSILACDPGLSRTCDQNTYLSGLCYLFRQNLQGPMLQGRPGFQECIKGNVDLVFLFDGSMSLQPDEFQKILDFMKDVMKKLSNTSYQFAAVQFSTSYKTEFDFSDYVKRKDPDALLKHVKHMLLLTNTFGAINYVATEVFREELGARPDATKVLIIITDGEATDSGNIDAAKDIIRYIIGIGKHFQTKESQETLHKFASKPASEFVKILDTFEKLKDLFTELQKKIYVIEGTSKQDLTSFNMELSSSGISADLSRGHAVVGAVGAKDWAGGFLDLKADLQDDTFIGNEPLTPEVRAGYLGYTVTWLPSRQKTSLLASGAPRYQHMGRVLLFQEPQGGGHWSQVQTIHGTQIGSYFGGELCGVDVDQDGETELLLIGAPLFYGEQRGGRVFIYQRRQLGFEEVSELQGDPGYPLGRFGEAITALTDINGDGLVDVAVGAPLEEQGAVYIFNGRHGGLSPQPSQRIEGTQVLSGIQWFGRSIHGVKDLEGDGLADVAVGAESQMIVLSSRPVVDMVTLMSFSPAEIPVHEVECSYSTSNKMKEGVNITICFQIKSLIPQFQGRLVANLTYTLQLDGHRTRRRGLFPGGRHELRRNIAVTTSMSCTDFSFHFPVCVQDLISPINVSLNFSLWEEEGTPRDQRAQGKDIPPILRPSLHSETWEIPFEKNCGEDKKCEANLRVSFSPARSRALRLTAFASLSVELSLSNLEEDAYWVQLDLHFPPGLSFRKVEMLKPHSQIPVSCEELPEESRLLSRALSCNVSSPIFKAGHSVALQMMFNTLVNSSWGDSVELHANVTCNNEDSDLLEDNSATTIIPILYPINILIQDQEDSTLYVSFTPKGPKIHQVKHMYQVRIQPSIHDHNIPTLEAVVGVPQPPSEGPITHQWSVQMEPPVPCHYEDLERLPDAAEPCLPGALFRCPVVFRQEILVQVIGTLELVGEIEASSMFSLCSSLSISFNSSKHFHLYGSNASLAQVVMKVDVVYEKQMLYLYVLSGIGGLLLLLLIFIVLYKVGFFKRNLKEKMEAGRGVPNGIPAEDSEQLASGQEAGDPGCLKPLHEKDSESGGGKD
UniProt Q14005, residues 702-1332: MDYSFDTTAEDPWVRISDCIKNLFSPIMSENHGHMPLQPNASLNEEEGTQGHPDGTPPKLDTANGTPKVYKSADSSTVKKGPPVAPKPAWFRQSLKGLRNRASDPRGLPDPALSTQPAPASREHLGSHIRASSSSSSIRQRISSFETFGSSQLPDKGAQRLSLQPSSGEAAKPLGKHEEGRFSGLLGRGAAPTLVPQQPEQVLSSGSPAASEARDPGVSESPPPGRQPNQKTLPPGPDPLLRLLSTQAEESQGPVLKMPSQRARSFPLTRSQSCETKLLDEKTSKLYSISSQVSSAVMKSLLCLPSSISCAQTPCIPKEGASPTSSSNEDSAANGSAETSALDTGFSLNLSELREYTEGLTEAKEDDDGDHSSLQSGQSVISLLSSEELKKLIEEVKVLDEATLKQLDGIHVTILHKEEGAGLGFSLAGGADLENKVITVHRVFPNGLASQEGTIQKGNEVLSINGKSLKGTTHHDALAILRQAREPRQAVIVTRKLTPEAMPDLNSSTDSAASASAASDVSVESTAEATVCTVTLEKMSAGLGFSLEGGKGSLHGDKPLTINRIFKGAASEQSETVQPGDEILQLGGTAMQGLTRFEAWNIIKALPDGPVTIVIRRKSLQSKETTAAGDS
UniProt O43166: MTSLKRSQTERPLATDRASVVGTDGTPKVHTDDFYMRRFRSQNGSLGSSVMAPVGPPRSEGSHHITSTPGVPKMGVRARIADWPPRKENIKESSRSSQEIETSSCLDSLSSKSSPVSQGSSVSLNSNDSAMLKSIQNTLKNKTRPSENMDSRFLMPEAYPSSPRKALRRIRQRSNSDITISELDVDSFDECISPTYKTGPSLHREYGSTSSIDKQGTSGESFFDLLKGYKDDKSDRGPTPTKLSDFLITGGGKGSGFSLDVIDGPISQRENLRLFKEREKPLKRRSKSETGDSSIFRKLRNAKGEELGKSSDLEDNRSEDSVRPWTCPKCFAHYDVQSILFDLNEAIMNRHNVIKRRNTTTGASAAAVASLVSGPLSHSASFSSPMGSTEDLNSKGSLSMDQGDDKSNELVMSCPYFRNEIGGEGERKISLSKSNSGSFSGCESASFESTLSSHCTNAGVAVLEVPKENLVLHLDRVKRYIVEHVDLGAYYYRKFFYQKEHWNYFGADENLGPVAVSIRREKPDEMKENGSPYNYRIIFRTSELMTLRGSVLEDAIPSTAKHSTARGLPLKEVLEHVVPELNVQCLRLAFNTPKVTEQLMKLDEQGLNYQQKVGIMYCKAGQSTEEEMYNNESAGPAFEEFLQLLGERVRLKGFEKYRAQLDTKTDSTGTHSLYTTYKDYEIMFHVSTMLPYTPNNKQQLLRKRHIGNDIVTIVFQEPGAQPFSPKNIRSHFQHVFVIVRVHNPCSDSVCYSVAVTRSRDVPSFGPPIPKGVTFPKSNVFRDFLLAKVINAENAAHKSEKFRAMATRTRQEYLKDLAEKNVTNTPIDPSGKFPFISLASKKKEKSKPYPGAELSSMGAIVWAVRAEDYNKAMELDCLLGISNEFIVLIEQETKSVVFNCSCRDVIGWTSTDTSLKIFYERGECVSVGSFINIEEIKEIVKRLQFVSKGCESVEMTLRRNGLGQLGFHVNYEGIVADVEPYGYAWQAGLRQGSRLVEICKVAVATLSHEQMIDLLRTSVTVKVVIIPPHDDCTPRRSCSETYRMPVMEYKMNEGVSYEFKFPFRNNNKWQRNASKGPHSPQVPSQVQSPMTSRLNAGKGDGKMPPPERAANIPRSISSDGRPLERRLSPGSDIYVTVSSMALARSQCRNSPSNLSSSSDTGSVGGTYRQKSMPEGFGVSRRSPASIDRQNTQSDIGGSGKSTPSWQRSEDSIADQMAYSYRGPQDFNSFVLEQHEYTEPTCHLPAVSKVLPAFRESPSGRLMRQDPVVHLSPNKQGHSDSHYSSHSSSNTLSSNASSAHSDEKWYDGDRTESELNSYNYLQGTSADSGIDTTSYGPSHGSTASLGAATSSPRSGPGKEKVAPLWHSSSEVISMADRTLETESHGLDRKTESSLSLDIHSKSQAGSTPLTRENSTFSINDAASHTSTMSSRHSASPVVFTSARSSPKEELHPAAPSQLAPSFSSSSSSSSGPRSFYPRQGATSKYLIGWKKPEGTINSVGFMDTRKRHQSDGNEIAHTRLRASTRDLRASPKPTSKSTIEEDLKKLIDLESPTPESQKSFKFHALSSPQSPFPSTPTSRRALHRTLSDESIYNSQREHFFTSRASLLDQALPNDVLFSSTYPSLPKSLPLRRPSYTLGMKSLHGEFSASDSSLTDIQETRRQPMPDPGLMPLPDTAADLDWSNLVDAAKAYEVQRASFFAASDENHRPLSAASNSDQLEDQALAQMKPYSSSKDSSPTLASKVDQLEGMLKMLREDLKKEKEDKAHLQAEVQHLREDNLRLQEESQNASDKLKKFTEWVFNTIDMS
UniProt O00560: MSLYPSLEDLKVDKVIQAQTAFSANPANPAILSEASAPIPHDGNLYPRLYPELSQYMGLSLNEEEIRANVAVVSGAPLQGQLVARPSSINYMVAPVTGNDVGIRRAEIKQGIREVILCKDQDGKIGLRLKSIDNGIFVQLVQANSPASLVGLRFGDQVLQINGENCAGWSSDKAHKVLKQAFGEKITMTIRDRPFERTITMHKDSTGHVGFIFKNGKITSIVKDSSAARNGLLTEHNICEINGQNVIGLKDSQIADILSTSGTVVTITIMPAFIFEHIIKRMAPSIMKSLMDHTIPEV
UniProt Q14160: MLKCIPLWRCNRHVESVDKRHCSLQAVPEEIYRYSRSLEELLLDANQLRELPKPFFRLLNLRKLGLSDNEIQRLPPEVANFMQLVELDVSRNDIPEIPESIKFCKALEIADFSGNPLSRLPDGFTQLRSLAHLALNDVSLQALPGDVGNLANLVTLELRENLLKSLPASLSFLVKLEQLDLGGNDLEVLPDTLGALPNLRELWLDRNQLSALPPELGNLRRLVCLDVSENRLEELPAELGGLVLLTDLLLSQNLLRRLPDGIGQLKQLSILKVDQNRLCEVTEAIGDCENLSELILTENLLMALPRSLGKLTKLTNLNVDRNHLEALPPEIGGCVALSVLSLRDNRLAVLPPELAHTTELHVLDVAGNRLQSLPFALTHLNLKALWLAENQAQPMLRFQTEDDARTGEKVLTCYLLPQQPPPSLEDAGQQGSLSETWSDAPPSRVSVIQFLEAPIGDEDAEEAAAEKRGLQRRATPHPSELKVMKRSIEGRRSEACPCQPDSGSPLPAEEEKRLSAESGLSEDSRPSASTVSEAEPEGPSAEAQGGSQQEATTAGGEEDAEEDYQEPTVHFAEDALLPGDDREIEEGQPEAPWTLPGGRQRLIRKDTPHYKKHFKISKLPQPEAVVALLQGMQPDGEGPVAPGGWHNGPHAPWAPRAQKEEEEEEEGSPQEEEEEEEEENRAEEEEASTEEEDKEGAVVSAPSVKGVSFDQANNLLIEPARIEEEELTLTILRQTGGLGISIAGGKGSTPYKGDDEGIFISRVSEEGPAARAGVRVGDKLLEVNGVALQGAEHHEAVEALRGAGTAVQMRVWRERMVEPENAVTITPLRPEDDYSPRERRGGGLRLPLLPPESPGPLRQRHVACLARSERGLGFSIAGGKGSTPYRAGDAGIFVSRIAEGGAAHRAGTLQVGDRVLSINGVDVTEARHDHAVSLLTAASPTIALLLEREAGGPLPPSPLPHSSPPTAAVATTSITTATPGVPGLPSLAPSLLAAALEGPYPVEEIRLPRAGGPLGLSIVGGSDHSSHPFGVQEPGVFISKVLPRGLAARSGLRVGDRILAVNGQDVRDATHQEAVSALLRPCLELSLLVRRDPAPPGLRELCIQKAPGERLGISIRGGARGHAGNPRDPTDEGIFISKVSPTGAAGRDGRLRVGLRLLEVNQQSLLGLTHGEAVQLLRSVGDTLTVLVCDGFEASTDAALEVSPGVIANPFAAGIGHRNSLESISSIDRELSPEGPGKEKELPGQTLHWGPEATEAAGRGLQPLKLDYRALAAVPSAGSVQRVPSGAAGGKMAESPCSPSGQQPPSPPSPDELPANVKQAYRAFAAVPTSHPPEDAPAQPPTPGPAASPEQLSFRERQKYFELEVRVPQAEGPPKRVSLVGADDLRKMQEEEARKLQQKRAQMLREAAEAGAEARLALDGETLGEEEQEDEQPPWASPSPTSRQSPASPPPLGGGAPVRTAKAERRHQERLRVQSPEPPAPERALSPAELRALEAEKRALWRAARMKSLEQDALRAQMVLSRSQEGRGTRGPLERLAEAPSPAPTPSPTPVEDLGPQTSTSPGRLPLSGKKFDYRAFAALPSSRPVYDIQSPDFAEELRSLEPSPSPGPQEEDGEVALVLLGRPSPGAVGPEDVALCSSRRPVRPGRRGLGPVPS
UniProt O95793: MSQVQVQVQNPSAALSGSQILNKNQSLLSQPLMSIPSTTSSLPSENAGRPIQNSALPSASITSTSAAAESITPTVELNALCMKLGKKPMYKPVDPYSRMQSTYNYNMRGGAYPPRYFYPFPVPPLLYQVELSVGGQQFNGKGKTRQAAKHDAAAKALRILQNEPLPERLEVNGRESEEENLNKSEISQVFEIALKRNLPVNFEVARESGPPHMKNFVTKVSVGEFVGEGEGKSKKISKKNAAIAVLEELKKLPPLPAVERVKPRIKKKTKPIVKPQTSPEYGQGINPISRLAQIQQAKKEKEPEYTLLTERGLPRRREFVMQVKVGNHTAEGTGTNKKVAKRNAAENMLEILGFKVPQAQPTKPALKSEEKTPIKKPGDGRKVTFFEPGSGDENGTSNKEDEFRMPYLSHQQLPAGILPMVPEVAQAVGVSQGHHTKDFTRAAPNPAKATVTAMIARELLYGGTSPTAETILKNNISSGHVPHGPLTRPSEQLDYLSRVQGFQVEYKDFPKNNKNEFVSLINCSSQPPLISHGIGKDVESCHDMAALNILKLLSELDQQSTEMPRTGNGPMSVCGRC

Biological target: GFP-SARS-CoV-2 E protein (wild-type E protein) (SARS-CoV-2) (UniProt P0DTC4)
Test: affinity purification with mass spectrometry

Substance | binding
integrin alpha L (from UniProt P20701 26-1170) | binds
CD44 (from UniProt P16070 21-742) | binds
MOV10A (from UniProt Q9HCE1 1-1003) | binds
delphilin (from UniProt A4D2P6 1-1211) | binds
pro-interleukin 16 (from UniProt Q14005-3 1-631) | binds
signal-induced proliferation-associated 1-like protein 1 (from UniProt O43166 1-1804) | binds
syntenin-1 (from UniProt O00560 1-298) | binds
scribble human homolog (from UniProt Q14160 1-1655) | binds
STAU1 (from UniProt O95793 1-577) | binds
